Laboratory results as given in PMC10397244.
Results are given in words; binding and its absence hold for the method and conditions named. In cells and extracts the contact can be indirect. Some binding calls cover weakened binding; strength is not graded here. Sequences can lack the tags named with a protein.

T1: BIK1-CLuc (Arabidopsis thaliana) (UniProt O48814)
T1 sequence: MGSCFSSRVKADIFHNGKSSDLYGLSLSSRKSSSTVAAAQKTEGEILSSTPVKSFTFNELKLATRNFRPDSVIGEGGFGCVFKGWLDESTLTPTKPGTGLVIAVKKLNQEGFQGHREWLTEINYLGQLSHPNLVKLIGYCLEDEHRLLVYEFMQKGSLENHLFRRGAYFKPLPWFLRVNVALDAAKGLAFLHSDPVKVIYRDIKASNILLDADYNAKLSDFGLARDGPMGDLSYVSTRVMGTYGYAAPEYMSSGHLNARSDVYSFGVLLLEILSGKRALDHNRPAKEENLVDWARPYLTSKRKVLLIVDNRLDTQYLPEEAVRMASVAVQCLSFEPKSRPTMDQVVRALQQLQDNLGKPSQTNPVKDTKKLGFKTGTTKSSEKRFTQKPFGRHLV

T2: BIK1 (expressed in Arabidopsis protoplasts or in vivo; tag of the experiment not told) (Arabidopsis thaliana) (UniProt O48814)
T2 sequence: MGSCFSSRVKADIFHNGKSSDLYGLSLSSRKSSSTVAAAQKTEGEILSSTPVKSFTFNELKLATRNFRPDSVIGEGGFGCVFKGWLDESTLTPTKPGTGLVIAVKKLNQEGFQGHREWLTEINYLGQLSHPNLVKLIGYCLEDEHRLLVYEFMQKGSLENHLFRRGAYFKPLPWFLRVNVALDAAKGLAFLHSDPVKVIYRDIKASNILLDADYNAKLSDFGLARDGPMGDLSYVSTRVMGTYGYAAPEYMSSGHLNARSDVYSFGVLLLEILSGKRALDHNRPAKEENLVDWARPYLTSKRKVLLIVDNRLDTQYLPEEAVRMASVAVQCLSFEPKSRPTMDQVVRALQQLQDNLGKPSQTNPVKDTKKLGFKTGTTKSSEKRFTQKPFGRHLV

T3: BIK1-nYFP (Arabidopsis thaliana) (UniProt O48814)
T3 sequence: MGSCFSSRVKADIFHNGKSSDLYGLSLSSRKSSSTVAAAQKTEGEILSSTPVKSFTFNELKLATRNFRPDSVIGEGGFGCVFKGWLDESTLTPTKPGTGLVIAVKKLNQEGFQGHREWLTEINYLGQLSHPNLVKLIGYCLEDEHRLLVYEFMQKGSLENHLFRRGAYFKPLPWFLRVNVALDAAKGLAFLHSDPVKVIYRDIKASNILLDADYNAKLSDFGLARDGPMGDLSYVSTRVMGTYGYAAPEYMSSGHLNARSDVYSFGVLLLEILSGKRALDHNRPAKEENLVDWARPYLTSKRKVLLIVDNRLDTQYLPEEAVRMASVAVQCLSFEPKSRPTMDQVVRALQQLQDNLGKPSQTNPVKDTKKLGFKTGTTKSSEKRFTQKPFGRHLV

T4: PUB25-nYFP (Arabidopsis thaliana) (UniProt Q9LT79)
T4 sequence: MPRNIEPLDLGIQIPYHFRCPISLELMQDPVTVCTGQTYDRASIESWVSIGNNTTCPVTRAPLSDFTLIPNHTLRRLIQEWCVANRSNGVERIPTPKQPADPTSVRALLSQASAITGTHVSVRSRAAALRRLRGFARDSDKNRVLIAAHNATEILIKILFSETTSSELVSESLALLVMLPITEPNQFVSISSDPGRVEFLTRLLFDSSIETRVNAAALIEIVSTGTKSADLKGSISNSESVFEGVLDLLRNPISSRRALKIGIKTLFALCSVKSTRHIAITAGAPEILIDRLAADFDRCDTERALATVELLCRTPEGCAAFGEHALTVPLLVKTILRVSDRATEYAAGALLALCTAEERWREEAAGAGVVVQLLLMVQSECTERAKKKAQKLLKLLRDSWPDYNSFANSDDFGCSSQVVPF


Columns and labels:
[1] = target: T1, BIK1-CLuc (Arabidopsis thaliana); experiment: split reporter; split-luciferase complementation; CLuc and NLuc fusions co-infiltrated into N. benthamiana leaves, luminescence two days later; with or without 5 uM flg22 for 30 min
[2] = target: T2, BIK1 (expressed in Arabidopsis protoplasts or in vivo; tag of the experiment not told) (Arabidopsis thaliana); experiment: co-IP; Arabidopsis protoplasts co-transfected with pHBT plasmids, 10 h; with or without 2.5 uM flg22 for 30 min (some with MG132; Col-0, bak1 or rglg1 rglg2 protoplasts); IP with anti-FLAG antibodies and protein G agarose, 4 C; 10 mM HEPES pH 7.5, 100 mM NaCl, 0.5% Triton X-100
[3] = target: T3, BIK1-nYFP (Arabidopsis thaliana); experiment: split reporter; BiFC: nYFP and cYFP fusions transfected into Arabidopsis protoplasts, confocal microscopy
[4] = target: T4, PUB25-nYFP (Arabidopsis thaliana); experiment: as above

Row | Binder | binding [1] | binding [2] | further results
1 | RGLG1-NLuc (protein, UniProt Q9SS90 1-489) MGGGNSKEESSSPSSSSWASHQSYPQYGPDSYNYPPPPTYAPAPSPAPAPAPVPAPSPASSYGPQYSQEGYASQPNNPPPPTYAPAPSPASSYGHQYSQEGYASAASQPNYPPPPSQSQVADRKKFDRRYSKISDNYSSLLQVSEALGRAGLESSNLIVGIDFTKSNEWTGAKSFNRKSLHHLSNTPNPYEQAITIIGRTLAAFDEDNLIPCYGFGDASTHDQDVFSFYPEGRFCNGFEEVLARYREIVPQLKLAGPTSFAPIIEMAMTVVEQSSGQYHVLVIIADGQVTRSVDTEHGRLSPQEQKTVDAIVKASTLPLSIVLVGVGDGPWDMMQEFDDNIPARAFDNFQFVNFTEIMSKNKDQSRKETEFALSALMEIPPQYKATIELNLLGVRNGNIPQRIPLPPPVQSGSSFSSSRIPNFEPSVPPYPFESKQMSSADDIQLCPICLSNPKNMAFGCGHQTCCECGPDLKVCPICRAPIQTRIKLY | binds | – | –
2 | ATL6 (expressed in Arabidopsis protoplasts; tag not told) (protein, UniProt Q8RXX9 30-398) QSQPGPTNQPYNYGRLSPAMAVIVVILIAALFFMGFFSIYFRHCSGVPDAGVSPAGGARSRATVNAAARGLDVSVVETFPTFLYSDVKTQKLGKGELECAICLNEFEDDETLRLLPKCDHVFHPHCIDAWLEAHVTCPVCRANLAEQVAEGESVEPGGTEPDLELQQVVVNPEPVVTAPVPEQLVTSEVDSRRLPGVPVDLKRVKFSRSHTTGHSVVQPGECTERFTLRLPEDVRKRIMKDWKLNRTNSLLVLPRGGSSRRGKPIDRSRARSDRWLFRKTPSFLWRSRDDGSIRLGATGSVRASAVPNSTGSDSVRAGDRWAFLRNASFLWRNSSVHVPRGGVNKDGEGTSVKSTGASGSTSGSVRLPV | – | binds | –
3 | ATL80 (expressed in Arabidopsis protoplasts; tag not told) (protein, UniProt Q9LM69 1-197) MARLLFRLLVESNTPSPAIDNSTAALNSDLVVILAALLCALICVLGLIAVSRCVWLRRLAAGNRTVSGSQTQSPQPPVAAANKGLKKKVLQSLPKLTFSPESPESEKFAECAICLAEFSAGDELRVLPQCGHGFHVACIDTWLGSHSSCPSCRQILVVARCHKCGGLPGSSSSGLESEPEIEIRIKQGEDDPNSFLP | – | binds | –
4 | ATL32-NLuc (protein, UniProt Q8W571 29-323) QSFSPSPPDLQTGHTPSKTTVFAVLVTLFFLTGLLSVYIRHCARSNPDSSTRYFRNRANDGSSRRGGLDNAVVESFPVFAYSSVKESKIGSKDLECAICLNELEDHETVRLLPICNHLFHIDCIDTWLYSHATCPVCRSNLTAKSNKPGDEDDGVPLAAMRDHVVVDIETVEVAKSHHRRLSSEISGKFPRSNSTGHSMDRFSDGTERFTLRLPDDVKMRLMAVKGRRLKRTRSFDVDLTAEHYCRSGEESSNTIGSGAKSGRVNWPDRWGLTLFVSKSNSGSVRSQKSNGEPLK | binds | – | –
5 | ATL6-NLuc (protein, UniProt Q8RXX9 30-398) QSQPGPTNQPYNYGRLSPAMAVIVVILIAALFFMGFFSIYFRHCSGVPDAGVSPAGGARSRATVNAAARGLDVSVVETFPTFLYSDVKTQKLGKGELECAICLNEFEDDETLRLLPKCDHVFHPHCIDAWLEAHVTCPVCRANLAEQVAEGESVEPGGTEPDLELQQVVVNPEPVVTAPVPEQLVTSEVDSRRLPGVPVDLKRVKFSRSHTTGHSVVQPGECTERFTLRLPEDVRKRIMKDWKLNRTNSLLVLPRGGSSRRGKPIDRSRARSDRWLFRKTPSFLWRSRDDGSIRLGATGSVRASAVPNSTGSDSVRAGDRWAFLRNASFLWRNSSVHVPRGGVNKDGEGTSVKSTGASGSTSGSVRLPV | binds | – | –
6 | PUB25 (co-IP with BIK1; tag not told) (protein, UniProt Q9LT79 1-421) MPRNIEPLDLGIQIPYHFRCPISLELMQDPVTVCTGQTYDRASIESWVSIGNNTTCPVTRAPLSDFTLIPNHTLRRLIQEWCVANRSNGVERIPTPKQPADPTSVRALLSQASAITGTHVSVRSRAAALRRLRGFARDSDKNRVLIAAHNATEILIKILFSETTSSELVSESLALLVMLPITEPNQFVSISSDPGRVEFLTRLLFDSSIETRVNAAALIEIVSTGTKSADLKGSISNSESVFEGVLDLLRNPISSRRALKIGIKTLFALCSVKSTRHIAITAGAPEILIDRLAADFDRCDTERALATVELLCRTPEGCAAFGEHALTVPLLVKTILRVSDRATEYAAGALLALCTAEERWREEAAGAGVVVQLLLMVQSECTERAKKKAQKLLKLLRDSWPDYNSFANSDDFGCSSQVVPF | – | binds | –
7 | ATL40-NLuc (protein, UniProt Q9SLC4 1-217) MSSNNKTDDSDDRSFWQNSTSYDASSKIFLVTTVSFSIIIIIVFVYYLYAKFVLHRRSAFQDLSFSVVSQPPKRGLDSLVIASLPTFVVGIKNDVAGTECAVCLSLLEEKDNARMLPNCKHVFHVSCVDTWLTTQSTCPVCRTEAEPSHPRLEPEPREGPVGDFAPPLDFAGVDNKTGGSSVSRLDSFRRILTRERSSNRRDHSRVDQDRELDIERQ | binds | – | –
8 | ATL80-NLuc (protein, UniProt Q9LM69 1-197) MARLLFRLLVESNTPSPAIDNSTAALNSDLVVILAALLCALICVLGLIAVSRCVWLRRLAAGNRTVSGSQTQSPQPPVAAANKGLKKKVLQSLPKLTFSPESPESEKFAECAICLAEFSAGDELRVLPQCGHGFHVACIDTWLGSHSSCPSCRQILVVARCHKCGGLPGSSSSGLESEPEIEIRIKQGEDDPNSFLP | binds | – | –
9 | RGLG3 (expressed in Arabidopsis protoplasts; tag not told) (protein, UniProt Q8RX26 1-367) MNMSNKRNQQPSYIADHFSSLDQVITSLREAGLESSNLILGIDFTKSNEWTGRYSFNRKSLHAIGKRQNPYEKAISIIGRTLSPFDEDDLIPCFGFGDVTTRDQYVFSFYPENKSCDGLENAVKRYREIVPHLKLSGPTSFAPVIDAAINIVEQNNMQYHVLVIIADGQVTRNPDVPLGRLSPQEEATMNSIMAASHYPLSIVLVGVGDGPWDTMKQFDDNIPHREFDNFQFVNFTKIMSEHKDAAKKEAAFALAALMEIPFQYKATLSLNRKPVRSSHQHHKPLPPPPEVIERDNAVRSVPNQMTETAEKSDRLAPSTVPVCPICLTNPKDMAFSCGHTTCKECGVVITTCPLCRQPITTRIRLYT | – | no binding | –
10 | RGLG3-cYFP (protein, UniProt Q8RX26 1-367) MNMSNKRNQQPSYIADHFSSLDQVITSLREAGLESSNLILGIDFTKSNEWTGRYSFNRKSLHAIGKRQNPYEKAISIIGRTLSPFDEDDLIPCFGFGDVTTRDQYVFSFYPENKSCDGLENAVKRYREIVPHLKLSGPTSFAPVIDAAINIVEQNNMQYHVLVIIADGQVTRNPDVPLGRLSPQEEATMNSIMAASHYPLSIVLVGVGDGPWDTMKQFDDNIPHREFDNFQFVNFTKIMSEHKDAAKKEAAFALAALMEIPFQYKATLSLNRKPVRSSHQHHKPLPPPPEVIERDNAVRSVPNQMTETAEKSDRLAPSTVPVCPICLTNPKDMAFSCGHTTCKECGVVITTCPLCRQPITTRIRLYT | – | – | binding [3]: no binding; binding [4]: no binding
